Results deposited as PubChem BioAssay AID1259405 (NCATS, 2018)

Assay: 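Silenced genes that increase secreted GFP made by CHO cells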 (primary screen)
System: Chinese hamster CHO-K1 ovary cells with stable secreted eGFP expression
Knock-down reagent: single siRNA against mouse genes, 0.8 pmol siRNA per well (2 µl of 400 nM stock)
Time to read-out: 3 days
Detection: 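Per-well intracellular GFP measured by laser scanning cytometry, plus viability from ATP luminescence, each relative to plate median of non-targeting control wells, in %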
Reading the numbers: GFP, % of control: higher = more GFP per well, higher productivity; viability (ATP), % of control: higher = more viable cells (more ATP)
Rule for the call: 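Called active when intracellular GFP, relative to negative control, is at or above 120%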
Here is a random part of about 50,000 reagents. About 4,000 of all reagents (8%) count as active. 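Mouse siRNA library applied to hamster cells; one well for each siRNA.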 Unmarked entries are inactive. Reagents against one gene are numbered here.

With Ppp2ca (GeneID 19052) #1, what does the deposit list?
GFP, % of control: 124 (active); viability (ATP), % of control: 146

With Ppp2ca (GeneID 19052) #2, what does the deposit list?
GFP, % of control: 95.5; viability (ATP), % of control: 77

How did the screen score Cpne2 (GeneID 234577) #1?
GFP, % of control: 92.2; viability (ATP), % of control: 80.9

With Cpne2 (GeneID 234577) #2, what was measured?
GFP, % of control: 91.4; viability (ATP), % of control: 86.7

With Cpne2 (GeneID 234577) #3, what was measured?
GFP, % of control: 110; viability (ATP), % of control: 133

With Sstr4 (GeneID 20608) #1, how do the results read?
GFP, % of control: 74.5; viability (ATP), % of control: 87.2

With Sstr4 (GeneID 20608) #2, what was measured?
GFP, % of control: 48.8; viability (ATP), % of control: 63

With Sstr4 (GeneID 20608) #3, what does the deposit list?
GFP, % of control: 47.8; viability (ATP), % of control: 45.9

With Dna2 (GeneID 327762) #1, what was measured?
GFP, % of control: 89.1; viability (ATP), % of control: 95.6

With Dna2 (GeneID 327762) #2, what does the deposit list?
GFP, % of control: 88.2; viability (ATP), % of control: 102

Which result is listed for Dna2 (GeneID 327762) #3?
GFP, % of control: 110; viability (ATP), % of control: 66.5

What is on record for Copg1 (GeneID 54161) #1?
GFP, % of control: 136 (active); viability (ATP), % of control: 79.7

How did the screen score Copg1 (GeneID 54161) #2?
GFP, % of control: 69.4; viability (ATP), % of control: 47.6

How did the screen score Copg1 (GeneID 54161) #3?
GFP, % of control: 78.9; viability (ATP), % of control: 71

What is on record for Smpd2 (GeneID 20598) #1?
GFP, % of control: 93.2; viability (ATP), % of control: 101

With Smpd2 (GeneID 20598) #2, what was measured?
GFP, % of control: 41.6; viability (ATP), % of control: 62.4

What is on record for Smpd2 (GeneID 20598) #3?
GFP, % of control: 81.6; viability (ATP), % of control: 67.2

Records listed so far whose gene name starts with P or p (2):
Ppp2ca (GeneID 19052) #1 → GFP, % of control: 124 (active); viability (ATP), % of control: 146
Ppp2ca (GeneID 19052) #2 → GFP, % of control: 95.5; viability (ATP), % of control: 77
